Values from PubChem BioAssay AID686938 (Drosophila RNAi Screening Center, 2013).
Test: 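Knock-downs reducing store-operated calcium influx in Drosophila cells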 (primary screen). Cell system: Drosophila S2R+ cells. Reagent: long dsRNA against Drosophila genes, about 0.25 µg dsRNA per well, roughly 10,000 cells. Duration: 5 days of knock-down before the calcium assay. Treatment: thapsigargin (SERCA pump blocker) to empty calcium stores; entry signal taken 4 min after adding it. Detection: 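Per-well fluo-4 fluorescence in two replicates, unnormalised, measured in resting cells and 4 min after store depletion by the SERCA blocker thapsigargin; ratio of the two present in few wells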. Scale: calcium entry signal: higher = stronger calcium signal after store depletion; resting calcium signal: higher = higher resting calcium signal. Active means: 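Called when the plate z-score of the entry-to-rest ratio, mean of duplicates, falls below −3; wells with low overall dye signal (Fmax z below −2) or more than five off-targets excluded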. Calls: active = strongly reduced calcium entry; inactive = no strong reduction.
In all, the deposit lists about 23,000 reagents; this is an unselected part of those with a known target gene and a result. Over the whole deposit, 75 (0.33%) are marked active. 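Raw plate signals without normalisation; calls rest on plate z-scores that were not deposited; ratio present for only 364 wells.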 A plus sign joins genes that one reagent is predicted to hit. Not given: the dose of the treatment.

Target gene | DRSC id | calcium entry signal, replicate 1 (fluorescence units) | calcium entry signal, replicate 2 (fluorescence units) | resting calcium signal, replicate 1 (fluorescence units) | resting calcium signal, replicate 2 (fluorescence units) | call
crol | DRSC03514 | 4.17e7 | – | 2.14e7 | – | inactive
crol | DRSC21348 | 3.39e7 | 3.20e7 | 1.90e7 | 1.49e7 | inactive
CG43109 | DRSC05754 | 3.47e7 | 4.26e7 | 1.64e7 | 2.13e7 | inactive
rig | DRSC06053 | 3.96e7 | 3.59e7 | 1.83e7 | 1.84e7 | inactive
rig | DRSC06400 | 2.29e7 | 2.82e7 | 1.16e7 | 1.40e7 | inactive
CG31697 | DRSC22273 | 2.51e7 | 2.94e7 | 1.23e7 | 1.50e7 | inactive
CG10029 | DRSC12498 | 4.15e7 | 4.78e7 | 1.72e7 | 2.04e7 | inactive
CG8778 | DRSC07264 | 3.60e7 | 3.84e7 | 1.79e7 | 1.80e7 | inactive
eIF4E4 | DRSC09701 | 3.11e7 | 4.33e7 | 1.33e7 | 1.62e7 | inactive
CG31787 | DRSC01632 | 2.47e7 | 2.75e7 | 1.40e7 | 1.57e7 | inactive
Ttd14 | DRSC06632 | 3.71e7 | 4.07e7 | 1.86e7 | 2.19e7 | inactive
Ttd14 | DRSC06942 | 5.88e7 | 3.88e7 | 2.41e7 | 2.05e7 | inactive
Vm26Aa | DRSC03472 | 3.75e7 | 4.02e7 | 1.68e7 | 1.98e7 | inactive
Npc1b | DRSC20488 | 3.45e7 | 4.74e7 | 1.88e7 | 2.02e7 | inactive
CG2616 | DRSC15440 | 4.19e7 | 3.13e7 | 2.16e7 | 1.60e7 | inactive
CG3071 | DRSC18526 | 3.50e7 | 3.83e7 | 1.63e7 | 1.72e7 | inactive
CG2694 | DRSC18470 | 3.97e7 | 4.43e7 | 1.88e7 | 2.02e7 | inactive
insv | DRSC00579 | 4.22e7 | 5.34e7 | 1.93e7 | 2.30e7 | inactive
Obp50e | DRSC06434 | 2.10e7 | 3.36e7 | 1.08e7 | 1.44e7 | inactive
CG3358 | DRSC04992 | 4.09e7 | – | 1.91e7 | – | inactive
CR42785 | DRSC04962 | 1.90e7 | 3.30e7 | 1.07e7 | 1.50e7 | inactive
simj | DRSC10942 | 3.00e7 | 1.88e7 | 2.38e7 | 8.87e6 | inactive
Ctu2 | DRSC02024 | 3.75e7 | – | 2.06e7 | – | inactive
Or98b | DRSC16775 | 3.27e7 | 5.44e7 | 1.69e7 | 2.52e7 | inactive
Or98b | DRSC21751 | 3.76e7 | 4.35e7 | 1.96e7 | 1.90e7 | inactive
oaf | DRSC00831 | 3.30e7 | 4.54e7 | 1.63e7 | 1.86e7 | inactive
Dnali1 | DRSC16158 | 3.05e7 | 3.59e7 | 1.41e7 | 1.59e7 | inactive
kni | DRSC11891 | 3.11e7 | 5.71e7 | 1.49e7 | 2.33e7 | inactive
kni | DRSC23093 | 4.72e7 | 4.38e7 | 2.41e7 | 1.81e7 | inactive
Rrp6 | DRSC16223 | 2.49e7 | 1.90e7 | 1.79e7 | 1.29e7 | inactive
CG15864 | DRSC15122 | 5.21e7 | 4.02e7 | 2.56e7 | 1.83e7 | inactive
lncRNA:CR32690 | DRSC22219 | 3.47e7 | 4.83e7 | 1.90e7 | 2.84e7 | inactive
GatC + PolG2 | DRSC03312 | 5.06e7 | – | 2.23e7 | – | inactive
Mob3 | DRSC02791 | 2.93e7 | 3.19e7 | 1.36e7 | 1.36e7 | inactive

Reprinted from the listing (8 entries):
Target gene | DRSC id | calcium entry signal, replicate 1 (fluorescence units) | calcium entry signal, replicate 2 (fluorescence units) | resting calcium signal, replicate 1 (fluorescence units) | resting calcium signal, replicate 2 (fluorescence units) | call
CG10029 | DRSC12498 | 4.15e7 | 4.78e7 | 1.72e7 | 2.04e7 | inactive
CG8778 | DRSC07264 | 3.60e7 | 3.84e7 | 1.79e7 | 1.80e7 | inactive
eIF4E4 | DRSC09701 | 3.11e7 | 4.33e7 | 1.33e7 | 1.62e7 | inactive
CG31787 | DRSC01632 | 2.47e7 | 2.75e7 | 1.40e7 | 1.57e7 | inactive
Ttd14 | DRSC06632 | 3.71e7 | 4.07e7 | 1.86e7 | 2.19e7 | inactive
Ttd14 | DRSC06942 | 5.88e7 | 3.88e7 | 2.41e7 | 2.05e7 | inactive
Vm26Aa | DRSC03472 | 3.75e7 | 4.02e7 | 1.68e7 | 1.98e7 | inactive
Npc1b | DRSC20488 | 3.45e7 | 4.74e7 | 1.88e7 | 2.02e7 | inactive

More results follow.
Target gene | DRSC id | calcium entry signal, replicate 1 (fluorescence units) | calcium entry signal, replicate 2 (fluorescence units) | resting calcium signal, replicate 1 (fluorescence units) | resting calcium signal, replicate 2 (fluorescence units) | call
iotaTry | DRSC07634 | 3.17e7 | 3.33e7 | 1.63e7 | 1.61e7 | inactive
Mtp | DRSC03216 | 3.35e7 | – | 1.58e7 | – | inactive
mino | DRSC14132 | 3.99e7 | 4.68e7 | 1.88e7 | 2.09e7 | inactive
kuz | DRSC03555 | 3.54e7 | 2.24e7 | 1.77e7 | 1.27e7 | inactive
Aldh-III | DRSC06047 | 4.11e7 | – | 2.23e7 | – | inactive
Apt1 | DRSC10348 | 2.21e7 | 2.45e7 | 1.26e7 | 1.25e7 | inactive
Lamtor2 + CG30120 | DRSC05726 | 2.33e7 | 4.87e7 | 1.14e7 | 2.05e7 | inactive
Lamtor2 + CG30120 | DRSC06922 | 5.61e7 | 5.11e7 | 2.22e7 | 2.44e7 | inactive
CG8366 | DRSC07153 | 2.82e7 | 2.96e7 | 1.31e7 | 1.51e7 | inactive
RhoGEF4 | DRSC11011 | 5.00e7 | 3.81e7 | 3.39e7 | 1.62e7 | inactive
Skadu | DRSC01490 | 2.81e7 | 4.33e7 | 1.60e7 | 1.91e7 | inactive
Mps1 | DRSC16273 | 3.75e7 | 4.04e7 | 1.74e7 | 1.71e7 | inactive
CG5641 | DRSC15852 | 3.37e7 | 4.40e7 | 1.48e7 | 1.89e7 | inactive
Pfrx | DRSC18856 | 4.04e7 | 4.08e7 | 1.90e7 | 1.90e7 | inactive
Pfrx | DRSC19315 | 2.94e7 | 4.87e7 | 1.56e7 | 2.40e7 | inactive
Osi1 | DRSC12271 | 3.60e7 | 5.90e7 | 1.73e7 | 2.65e7 | inactive
CG6048 | DRSC18398 | 2.48e7 | 3.93e7 | 1.27e7 | 1.98e7 | inactive
spir | DRSC03619 | 3.93e7 | 4.31e7 | 1.89e7 | 1.78e7 | inactive
Gr58b | DRSC04140 | 3.90e7 | 5.53e7 | 1.94e7 | 2.35e7 | inactive
Klp59C | DRSC04348 | 3.92e7 | 4.18e7 | 2.08e7 | 1.97e7 | inactive
CG44085 | DRSC02922 | 1.99e7 | 1.44e7 | 1.31e7 | 9.74e6 | inactive
CG44085 | DRSC02929 | 2.91e7 | 1.86e7 | 1.39e7 | 9.52e6 | inactive
CG44085 | DRSC23040 | 3.15e7 | 4.36e7 | 1.46e7 | 1.84e7 | inactive
rib | DRSC07021 | 2.84e7 | 2.80e7 | 1.30e7 | 1.36e7 | inactive
